# Results are given in words; binding and its absence hold for the method and conditions named. In cells and extracts the contact can be indirect. Binding can be weak; no strength is given. Where a sequence is shown, tags or fusion partners need not be part of it.
# Molecular target: Flag-tagged Vimentin Head-Rod (HR) domain truncated mutant (human)
# Test: co-IP; exogenous tagged proteins in transfected cells (MGC803 and MKN45 where named); low salt lysis buffer, supernatant with antibody (HA, Flag, 6xHis, MYC) and beads at 4 C overnight
binder,measurement,value
"HA-tagged Ladinin-1 (LAD1), full-length open reading frame (protein, UniProt O00515 1-517) MAVSRKDWSALSSLARQRTLEDEEEQERERRRRHRNLSSTTDDEAPRLSQNGDRQASASERLPSVEEAEVPKPLPPASKDEDEDIQSILRTRQERRQRRQVVEAAQAPIQERLEAEEGRNSLSPVQATQKPLVSKKELEIPPRRRLSREQRGPWALEEESLVGREPEERKKGVPEKSPVLEKSSMPKKTAPEKSLVSDKTSISEKVLASEKTSLSEKIAVSEKRNSSEKKSVLEKTSVSEKSLAPGMALGSGRRLVSEKASIFEKALASEKSPTADAKPAPKRATASEQPLAQEPPASGGSPATTKEQRGRALPGKNLPSLAKQGASDPPTVASRLPPVTLQVKIPSKEEEADMSSPTQRTYSSSLKRSSPRTISFRMKPKKENSETTLTRSASMKLPDNTVKLGEKLERYHTAIRRSESVKSRGLPCTELFVAPVGVASKRHLFEKELAGQSRAEPASSRKENLRLSGVVTSRLNLWISRTQESGDQDPQEAQKASSATERTQWGQKSDSSLDAEV",binding,binds
